Assay results: PubChem BioAssay AID270 (DTP/NCI, 2004)
The list is a part of this screen's results and no random one: it is rich in T/C values a quarter to a half above the control, in often repeated tests (any T/C) and in doses without a T/C. Other doses and runs of a compound stand elsewhere. T/C gives the treated animals as a percentage of the vehicle group. Schedule codes are those of the source, read here as Q, the interval in days (D) or hours (H), X, the number of doses. Some T/C values carry the count of animals alive at the toxicity check (mostly the fifth day); where none is given, no animal had died by that day. Some entries hold several experiments; the results are listed from low to high. Some entries give survivors of the animals treated and no T/C: the source holds a T/C of zero for them, seemingly a mark for toxic or unscored doses. Some survivor counts are full or nearly so, which does not show that the dose was tolerated: survival well below the control is almost never listed, so the zero probably covers shortened survival too. Survivors were counted at the toxicity check, usually on the fifth day, unless a day is given; later deaths do not show. Some schedules carry Z or #; the key to these is not given. Some structures stand for samples that the source files as different forms (salt, stereo form or complex); doses refer to the form tested. Additions like (4×) stand for listed records that agree. For survival time, this PubChem deposit counts one and a half times the control or more as active, and values a quarter to a half above the control carry no call in these data; other NCI protocols may use other cut-offs.

System: BDF1 mice, s.c. Lewis lung carcinoma, T/C %
Test: NCI In Vivo Anticancer Drug Screen. Data for tumor model Lewis Lung Carcinoma (subcutaneous) in B6D2F1 (BDF1) mice
Procedure, shortened: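 First, mice carry a transplantable tumor. Next, groups receive either compound or vehicle. Finally, survival or tumor dimensions in the dosed animals are divided by the corresponding control figure.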

[1] = T/C endpoint: median survival time, dose: 2.0 mg/kg/injection, schedule: Q01DX009 (ip), vehicle: saline, higher T/C = longer survival
[2] = T/C endpoint: mean tumor weight, dose: 200.0 mg/kg/injection, schedule: Q01DX011 (ip), vehicle: saline, higher T/C = larger tumour
[3] = T/C endpoint: mean tumor weight, dose: 80.0 mg/kg/injection, schedule: Q01DX011 (ip), vehicle: saline, higher T/C = larger tumour

CC(=O)Nc1cc2c(cc1Br)-c1ccccc1C2O (stereo unspecified)
T/C (T/C endpoint: mean tumor weight, dose: 85.0 mg/kg/injection, schedule: Q01DX011 (ip), vehicle: saline, evaluated on day 12, higher T/C = larger tumour): 41 and 63 % of control [5 of 6 alive] | survivor count (T/C endpoint: mean tumor weight, dose: 85.0 mg/kg/injection, schedule: Q01DX011 (ip), vehicle: saline, higher T/C = larger tumour): 0 of 6 and 2 of 6 | survivor count (T/C endpoint: mean tumor weight, dose: 130.0 mg/kg/injection, schedule: Q01DX011 (ip), vehicle: saline, higher T/C = larger tumour): 1 of 6 | survivor count (T/C endpoint: mean tumor weight, dose: 195.0 mg/kg/injection, schedule: Q01DX011 (ip), vehicle: saline, higher T/C = larger tumour): 1 of 6 | survivor count (T/C endpoint: mean tumor weight, dose: 296.0 mg/kg/injection, schedule: Q01DX011 (ip), vehicle: saline, higher T/C = larger tumour): 0 of 6, 0 of 7, 4 of 7 | survivor count (T/C endpoint: mean tumor weight, dose: 444.0 mg/kg/injection, schedule: Q01DX011 (ip), vehicle: saline, higher T/C = larger tumour): 0 of 7 | survivor count (T/C endpoint: mean tumor weight, dose: 666.0 mg/kg/injection, schedule: Q01DX011 (ip), vehicle: saline, higher T/C = larger tumour): 0 of 7 | survivor count (T/C endpoint: mean tumor weight, dose: 1000.0 mg/kg/injection, schedule: Q01DX011 (ip), vehicle: saline, higher T/C = larger tumour): 0 of 7 and 1 of 7

CC(CCc1cccc2ccccc12)(C(=O)O)C(=O)O
survivor count (T/C endpoint: mean tumor weight, dose: 125.0 mg/kg/injection, schedule: Q01DX011 (ip), vehicle: carboxymethylcellulose (CMC), higher T/C = larger tumour): 2 of 6 | survivor count (T/C endpoint: mean tumor weight, dose: 250.0 mg/kg/injection, schedule: Q01DX011 (ip), vehicle: carboxymethylcellulose (CMC), higher T/C = larger tumour): 3 of 6 | survivor count (T/C endpoint: mean tumor weight, dose: 500.0 mg/kg/injection, schedule: Q01DX011 (ip), vehicle: carboxymethylcellulose (CMC), higher T/C = larger tumour): 1 of 6

CC1OC(=O)C(C(C)C)NC(=O)C(C(C)C)OC(=O)C(C(C)C)NC(=O)C(C)OC(=O)C(C(C)C)NC(=O)C(C(C)C)OC(=O)C(C(C)C)NC(=O)C(C)OC(=O)C(C(C)C)NC(=O)C(C(C)C)OC(=O)C(C(C)C)NC1=O (stereo unspecified)
survivor count (T/C endpoint: median survival time, dose: 2.5 mg/kg/injection, schedule: Q01DX009 (ip), vehicle: saline with Tween-80, higher T/C = longer survival): 9 of 10 | survivor count (T/C endpoint: median survival time, dose: 5.0 mg/kg/injection, schedule: Q01DX009 (ip), vehicle: saline with Tween-80, higher T/C = longer survival): 10 of 10 | T/C (T/C endpoint: median survival time, dose: 6.0 mg/kg/injection, schedule: Q01DX009 (ip), vehicle: saline with Tween-80, higher T/C = longer survival): 125 % of control | survivor count (T/C endpoint: median survival time, dose: 10.0 mg/kg/injection, schedule: Q01DX009 (ip), vehicle: saline with Tween-80, higher T/C = longer survival): 10 of 10 | survivor count (T/C endpoint: median survival time, dose: 20.0 mg/kg/injection, schedule: Q01DX009 (ip), vehicle: saline with Tween-80, higher T/C = longer survival): 0 of 10 | survivor count (T/C endpoint: median survival time, dose: 40.0 mg/kg/injection, schedule: Q01DX009 (ip), vehicle: saline with Tween-80, higher T/C = longer survival): 0 of 10

CNc1nc(N(C)C)nc(N(C)C)n1
T/C (T/C endpoint: median survival time, dose: 100.0 mg/kg/injection, schedule: Q04DX003 (ip), vehicle: water, higher T/C = longer survival): 126 % of control | survivor count (T/C endpoint: median survival time, dose: 150.0 mg/kg/injection, schedule: Q01DX009 (ip), vehicle: water, higher T/C = longer survival): 10 of 10 | T/C (T/C endpoint: median survival time, dose: 150.0 mg/kg/injection, schedule: Q04DX003 (ip), vehicle: water, higher T/C = longer survival): 128 % of control | T/C (T/C endpoint: median survival time, dose: 225.0 mg/kg/injection, schedule: Q04DX003 (ip), vehicle: water, higher T/C = longer survival): 128 % of control [9 of 10 alive] | survivor count (T/C endpoint: median survival time, dose: 335.0 mg/kg/injection, schedule: Q01DX001 (ip), vehicle: water, higher T/C = longer survival): 7 of 10 | survivor count (T/C endpoint: median survival time, dose: 500.0 mg/kg/injection, schedule: Q01DX001 (ip), vehicle: water, higher T/C = longer survival): 0 of 10 | survivor count (T/C endpoint: median survival time, dose: 750.0 mg/kg/injection, schedule: Q01DX001 (ip), vehicle: water, higher T/C = longer survival): 0 of 10

O=C1c2ccccc2C(=O)c2c(NCCNCCO)ccc(NCCNCCO)c21
survivor count (T/C endpoint: median survival time, dose: 0.5 mg/kg/injection, schedule: Q01DX009 (ip), vehicle: saline with Tween-80, higher T/C = longer survival): 10 of 10 | T/C (T/C endpoint: median survival time, dose: 0.5 mg/kg/injection, schedule: Q01DX009 (ip), vehicle: saline, higher T/C = longer survival): 135 % of control | survivor count (T/C endpoint: median survival time, dose: 1.0 mg/kg/injection, schedule: Q01DX009 (ip), vehicle: saline with Tween-80, higher T/C = longer survival): 9 of 10 | survivor count (T/C endpoint: median survival time, dose: 2.0 mg/kg/injection, schedule: Q01DX009 (ip), vehicle: saline with Tween-80, higher T/C = longer survival): 10 of 10 | T/C [1]: 127 % of control | survivor count [1]: 10 of 10 | survivor count (T/C endpoint: median survival time, dose: 4.0 mg/kg/injection, schedule: Q01DX009 (ip), vehicle: Klucel (hydroxypropylcellulose) (HPC), higher T/C = longer survival): 10 of 10 | T/C (T/C endpoint: median survival time, dose: 8.0 mg/kg/injection, schedule: Q01DX009 (ip), vehicle: water, higher T/C = longer survival): 126 % of control | T/C (T/C endpoint: median survival time, dose: 16.0 mg/kg/injection, schedule: Q01DX009 (ip), vehicle: Klucel (hydroxypropylcellulose) (HPC), higher T/C = longer survival): 131 % of control | T/C (T/C endpoint: median survival time, dose: 16.0 mg/kg/injection, schedule: Q01DX009 (ip), vehicle: other, higher T/C = longer survival): 128 % of control | survivor count (T/C endpoint: median survival time, dose: 16.0 mg/kg/injection, schedule: Q01DX009 (ip), vehicle: water, higher T/C = longer survival): 9 of 10 | survivor count (T/C endpoint: median survival time, dose: 32.0 mg/kg/injection, schedule: Q01DX009 (ip), vehicle: Klucel (hydroxypropylcellulose) (HPC), higher T/C = longer survival): 10 of 10 (2×) | survivor count (T/C endpoint: median survival time, dose: 32.0 mg/kg/injection, schedule: Q01DX009 (ip), vehicle: acid diluted with saline, higher T/C = longer survival): 10 of 10 | survivor count (T/C endpoint: median survival time, dose: 32.0 mg/kg/injection, schedule: Q01DX009 (ip), vehicle: other, higher T/C = longer survival): 10 of 10 | survivor count (T/C endpoint: median survival time, dose: 32.0 mg/kg/injection, schedule: Q01DX009 (ip), vehicle: saline, higher T/C = longer survival): 10 of 10 | survivor count (T/C endpoint: median survival time, dose: 32.0 mg/kg/injection, schedule: Q01DX009 (ip), vehicle: water, higher T/C = longer survival): 10 of 10 | survivor count (T/C endpoint: median survival time, dose: 64.0 mg/kg/injection, schedule: Q01DX009 (ip), vehicle: Klucel (hydroxypropylcellulose) (HPC), higher T/C = longer survival): 8 of 10 | survivor count (T/C endpoint: median survival time, dose: 64.0 mg/kg/injection, schedule: Q01DX009 (ip), vehicle: acid diluted with saline, higher T/C = longer survival): 6 of 10 | survivor count (T/C endpoint: median survival time, dose: 64.0 mg/kg/injection, schedule: Q01DX009 (ip), vehicle: other, higher T/C = longer survival): 9 of 10 | survivor count (T/C endpoint: median survival time, dose: 64.0 mg/kg/injection, schedule: Q01DX009 (ip), vehicle: water, higher T/C = longer survival): 9 of 10 and 10 of 10 | survivor count (T/C endpoint: median survival time, dose: 80.0 mg/kg/injection, schedule: Q## X004 (ip), vehicle: saline, higher T/C = longer survival): 8 of 10

C=C1C(=O)OC2C3OC(C)(CCC(O)C3COC(C)=O)CC(OC(=O)/C(=C/C)COC(C)=O)C12 (stereo unspecified)
T/C (T/C endpoint: median survival time, dose: 12.5 mg/kg/injection, schedule: Q01DX009 (ip), vehicle: Klucel (hydroxypropylcellulose) (HPC), higher T/C = longer survival): 145 % of control | T/C (T/C endpoint: median survival time, dose: 25.0 mg/kg/injection, schedule: Q01DX009 (ip), vehicle: Klucel (hydroxypropylcellulose) (HPC), higher T/C = longer survival): 135 % of control [9 of 10 alive]

Nc1ncnc2nc[nH]c12
survivor count [2]: 3 of 6 | survivor count (T/C endpoint: mean tumor weight, dose: 400.0 mg/kg/injection, schedule: Q01DX011 (ip), vehicle: saline, higher T/C = larger tumour): 0 of 6

O=NN(CCCl)C(=O)Nc1ccc(Cl)c(Cl)c1
survivor count (T/C endpoint: median survival time, dose: 32.0 mg/kg/injection, schedule: Q01DX009 (ip), vehicle: saline with Tween-80, higher T/C = longer survival): 10 of 10 | survivor count (T/C endpoint: median survival time, dose: 64.0 mg/kg/injection, schedule: Q01DX009 (ip), vehicle: saline with Tween-80, higher T/C = longer survival): 9 of 10

CS(=O)(=O)OCCCNCCCOS(C)(=O)=O
survivor count [3]: 3 of 6 | survivor count (T/C endpoint: median survival time, dose: 40.0 mg/kg/injection, schedule: Q01DX009 (ip), vehicle: saline, higher T/C = longer survival): 10 of 10 | survivor count (T/C endpoint: median survival time, dose: 80.0 mg/kg/injection, schedule: Q01DX009 (ip), vehicle: saline, higher T/C = longer survival): 10 of 10 | survivor count (T/C endpoint: median survival time, dose: 160.0 mg/kg/injection, schedule: Q01DX009 (ip), vehicle: saline, higher T/C = longer survival): 9 of 10

CCC1CCC(NC(=O)N(CCF)N=O)CC1 (stereo unspecified)
survivor count (T/C endpoint: median tumor weight (est.), dose: 75.0 mg/kg/injection, schedule: Q01DX001 (ip), vehicle: saline with Tween-80, higher T/C = larger tumour): 2 of 10 on day 18

Cc1cc(C)c(NC(=O)N(CCCl)N=O)cc1C
survivor count (T/C endpoint: median survival time, dose: 100.0 mg/kg/injection, schedule: Q01DX009 (ip), vehicle: other, higher T/C = longer survival): 6 of 10

c1cc2n(n1)CCN2
survivor count (T/C endpoint: mean tumor weight (est.), dose: 800.0 mg/kg/injection, schedule: Q04DX003 (ip), vehicle: saline, higher T/C = larger tumour): 2 of 6 | survivor count (T/C endpoint: median survival time, dose: 200.0 mg/kg/injection, schedule: Q04DX003 (ip), vehicle: saline, higher T/C = longer survival): 6 of 6 | survivor count (T/C endpoint: median survival time, dose: 400.0 mg/kg/injection, schedule: Q01DX009 (ip), vehicle: saline, higher T/C = longer survival): 0 of 6 | survivor count (T/C endpoint: median survival time, dose: 800.0 mg/kg/injection, schedule: Q04DX003 (ip), vehicle: saline, higher T/C = longer survival): 2 of 6

CCCCCC[C@@H](O)C/C=C\CCCCCCCC(=O)O
survivor count [2]: 0 of 6

CN(C)CC(C(=O)c1ccc(Br)cc1)C(Br)c1ccccc1 (stereo unspecified)
T/C (T/C endpoint: median survival time, dose: 20.0 mg/kg/injection, schedule: Q01DX009 (ip), vehicle: saline, higher T/C = longer survival): 135 % of control

CCOC(=O)C(=CNc1cccc(Cl)c1)C(=O)OCC
T/C (T/C endpoint: mean tumor weight, dose: 333.0 mg/kg/injection, schedule: Q01DX011 (ip), vehicle: other, evaluated on day 12, higher T/C = larger tumour): 147 % of control | survivor count (T/C endpoint: mean tumor weight, dose: 500.0 mg/kg/injection, schedule: Q01DX011 (ip), vehicle: other, higher T/C = larger tumour): 2 of 6

O=S1(=O)CCCO1
survivor count [3]: 1 of 6
